Reference: PubChem BioAssay AID504834 (National Center for Advancing Translational Sciences (NCATS), 2011)
About 22,000 (6.9%) of roughly 320,000 compounds were called active. The shares of active, inactive and inconclusive entries below differ from those in the screen. The call rests on the fitted dose curve; in most records, active means well fitted inhibition curve with a large enough effect; inconclusive means small, poorly fitted or top-dose-only effect, or another doubt; inactive means no such curve, though single readings can be large or run the other way. A potency beside an inconclusive call is a rough fit, not a confirmed value.
On the % scale 0 is the no-effect control and ±100 the full control effect; potency means the concentration at half of the fitted maximal effect.

Assay: Primary qHTS for delayed death inhibitors of the malarial parasite plastid, 96 hour incubation
Settings: P. falciparum luciferase reporter growth; series mostly up to 28.7 µM; activity change, negative = inhibition: at the top concentration
Outline: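 Compounds incubated with erythrocytes infected by luciferase-expressing P. falciparum (2% hematocrit, 0.05% parasitemia final) for 96 hours, 37 C in 5% CO2. Growth inhibition scored as decreased luciferase luminescence.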
In the case of Cc1ccc(-n2cc(CNCCN3CCOC3=O)c(-c3ccc(F)cc3)n2)cc1, the Potency is reported as inconclusive: 10.4 µM [inhibitor, single point].
For Cc1ccc(F)c(NC(=S)Nc2cccc3ccccc23)c1, the “activity change, negative = inhibition” value was inactive: 49.7%.
For CC(NC(=O)CN1CCN(c2ccc(Cl)cc2)CC1)c1ccccc1 (configuration not stated), the Potency was inconclusive: 18.5 µM [inhibitor, single point].
With Cc1cc(N)n2ncc(-c3cccc(Br)c3)c2n1 the “activity change, negative = inhibition” value was inactive: 104%.
For CCCOc1ccc(S(=O)(=O)NCCN2CCOCC2)c2ccccc12, the Potency was inconclusive: 9.28 µM [inhibitor, single point].
For CCOC(=O)c1c2ccc(OCC(=O)N/N=C/c3ccc(Cl)cc3)cc2n2ccccc12, the Potency was inconclusive: 11.7 µM [inhibitor, partial curve].
With COc1ccc(C(=O)Nc2nnc(SCC(=O)NCc3ccco3)s2)cc1OC the Potency was inconclusive: 0.465 µM [inhibitor, partial curve, poor fit].
With O=C(NNS(=O)(=O)c1ccccc1)C(O)(c1ccccc1)c1ccccc1 the “activity change, negative = inhibition” value was inactive: -1.52%.
With CC1CCCC(C)N1c1nnc(NC(=O)Cn2c(=O)oc3ccccc32)s1 (configuration not stated) the Potency was inconclusive: 18.5 µM [inhibitor, single point].
For Clc1ccc(-c2c(C3=NCCCN3)nnn2-c2ccc(Cl)cc2)cc1, the Potency was inconclusive: 18.5 µM [inhibitor, single point].
In the case of CCOc1ccc(N2C(=O)/C(=C/c3cc(OC)c(OC)c(OC)c3)N(CC(=O)OC)C2=S)cc1, the Potency is reported as inconclusive: 0.037 µM [inhibitor, full curve, poor fit].
For Cc1ccc(CNC2=NCCS2)cc1, the Potency was active: 3.29 µM.
In the case of COc1ccc(OCC(=O)Nc2c(C(=O)N3CCC(N4CCCCC4)CC3)oc3ccccc23)cc1, the Potency is reported as inconclusive: 0.0657 µM [inhibitor, full curve, poor fit].
For COc1ccccc1N(C)S(=O)(=O)c1ccc(C(=O)Nc2ccc(C)cc2C)cc1, the Potency was inconclusive: 9.28 µM [inhibitor, partial curve].
In the case of O=C(COCc1cc(-c2ccc3c(c2)OCO3)on1)N1CCN(c2ccccc2)CC1, the Potency is reported as active: 10.4 µM.
For CC(C)C[C@H](NC(=O)N1CC(=O)Nc2ccccc21)C(=O)N[C@H](Cc1c[nH]c2ccccc12)C(=O)O, the Potency was inconclusive: 5.22 µM [inhibitor, partial curve].
With O=C(Nc1ccccc1N1CCN(C(=O)c2ccc(Cl)cc2)CC1)c1cccc(F)c1 the “activity change, negative = inhibition” value was inactive: 14.4%.
With CCOc1ccc(-n2c(-c3ccco3)nc3c(cnn3-c3ccc(C)cc3)c2=O)cc1 the Potency was inconclusive: 1.65 µM [inhibitor, partial curve, poor fit].
In the case of CCOC(=O)C1=C(O)C(=O)N(c2ccc(S(N)(=O)=O)cc2)C1c1ccc(OC)cc1 (configuration not stated), the Potency is reported as inconclusive: 7.38 µM [inhibitor, partial curve, poor fit].
For Cc1cccc(NC(=O)CSc2ccc(-c3ccc4c(c3)OCO4)nn2)c1C, the “activity change, negative = inhibition” value was inactive: 27.9%.
With COc1ccc(CCNC(=O)C2CCCN(S(=O)(=O)c3ccc(F)cc3)C2)cc1 (configuration not stated) the Potency was inconclusive: 14.7 µM [inhibitor, partial curve, poor fit].
With OCC[C@H]1C[C@@H](O)[C@H](O)[C@@]2(OCCc3ccccc32)O1 the Potency was inconclusive: 2.08 µM [inhibitor, single point].
With CCOC(=O)c1cc(-c2ccccc2)sc1NC(=O)C(C)Sc1nnnn1C (configuration not stated) the Potency was active: 10.4 µM.
With COc1ccc(CCNC(=O)C(=O)NCC2CCCN2S(=O)(=O)c2cc(C)ccc2C)cc1 (configuration not stated) the Potency was inconclusive: 8.28 µM [inhibitor, single point].
For Cc1ccc(C(=O)Nc2cccc(C(F)(F)F)c2)cc1Nc1cncnc1, the Potency was active: 11.7 µM.
For O=c1c2cc(F)ccc2[nH]c(=S)n1CCCN1CCOCC1, the Potency was inconclusive: 4.15 µM [inhibitor, partial curve, poor fit].
For CC1(C)CC(=O)C=C(C(=O)N2CCCC(C(=O)c3cccc(Cl)c3)C2)O1 (configuration not stated), the Potency was inconclusive: 14.7 µM [inhibitor, partial curve].
With c1cc2ccc3ccc(CN4CCOCC4)c4ccc(c1)c2c34 the Potency was inconclusive: 9.28 µM [inhibitor, single point].
In the case of CCC(C)c1ccc(NC(=O)NCc2cccnc2)cc1 (configuration not stated), the “activity change, negative = inhibition” value is reported as inactive: 18.1%.
In the case of Cc1ccc(Cn2ccc(NC(=O)c3cc(C(C)C)on3)n2)cc1, the “activity change, negative = inhibition” value is reported as inactive: -25.9%.
With Cc1onc(-c2ccccc2)c1C(=O)Nc1ccc2c(C)cc(=O)oc2c1 the Potency was inconclusive: 16.5 µM [inhibitor, single point].
With COc1cccc(/C=N/NC(=S)NC2CC3CC2C2C=CCC32)c1O (configuration not stated) the Potency was active: 1.31 µM.
With O=C(N/N=C/c1c(O)ccc2ccccc12)c1ccc[n+](CCO)c1 the Potency was active: 5.22 µM.
For CCN(CC(=O)N1CCc2ccccc2C1)S(=O)(=O)c1ccc2ccccc2c1, the “activity change, negative = inhibition” value was inactive: -14.9%.
In the case of COc1ccc(NC(=O)Nc2cc(C(C)(C)C)on2)cc1OC, the “activity change, negative = inhibition” value is reported as inactive: -9.06%.
For O=C(CN1C(=O)COc2ccc(S(=O)(=O)N3CCCCC3)cc21)NCc1ccc(Cl)cc1, the Potency was inconclusive: 18.5 µM [inhibitor, single point].
In the case of CSc1nc(C)nc(C2CC2)c1C#N, the “activity change, negative = inhibition” value is reported as inactive: 10.3%.
In the case of COc1cccc(C#Cc2c(C=O)n(C)c3ccccc23)c1, the Potency is reported as inconclusive: 8.28 µM [inhibitor, partial curve, poor fit].
For CC(C)c1nc2c(c(=O)n(C)c(=O)n2C)n1C, the “activity change, negative = inhibition” value was inactive: 0.694%.
For COc1cc2c(cc1OC)C(c1ccccc1O)NCC2 (configuration not stated), the Potency was inconclusive: 16.5 µM [inhibitor, single point].
With CC1CCCCC12NC(=O)N(CC(=O)N1CCN(S(=O)(=O)/C=C/c3ccccc3)CC1)C2=O (configuration not stated) the Potency was inconclusive: 18.5 µM [inhibitor, single point].
In the case of Fc1ccc(/C=N/Nc2ncnc3nc[nH]c23)cc1F, the Potency is reported as active: 9.28 µM.
With FC(F)(F)c1cccc(NC(=S)NC(c2ccccc2)c2ccccc2)c1 the Potency was active: 2.62 µM.
With CC(=O)c1cccc(NS(=O)(=O)c2c(C)noc2C)c1 the Potency was inconclusive: 18.5 µM [inhibitor, single point].
With CCN(CC)CCNC(=O)CCN1N=C(c2ccccc2)CCC1=O the Potency was inconclusive: 2.33 µM [inhibitor, full curve, poor fit].
For CC(=O)N1N=C(c2ccccc2)CC1c1cccc([N+](=O)[O-])c1 (configuration not stated), the “activity change, negative = inhibition” value was inactive: -22.9%.
For Cc1cccnc1NC(=O)Nc1cccc(Cl)c1, the Potency was inconclusive: 7.38 µM [inhibitor, partial curve, poor fit].
With COC(=O)c1c(NC(=O)CC2Nc3cc(C)c(C)cc3NC2=O)sc(C)c1C (configuration not stated) the Potency was inconclusive: 18.5 µM [inhibitor, single point].
For CCOC(=O)C(=NC(C)CC)NNc1ccc(Br)cc1 (configuration not stated), the “activity change, negative = inhibition” value was inactive: 0%.
For Cc1cc(NC(=O)c2cc3cccc([N+](=O)[O-])c3[nH]2)ccc1F, the Potency was inconclusive: 2.94 µM [inhibitor, full curve, poor fit].
For N#Cc1cnc(NCc2ccc(Cl)cc2Cl)nc1, the “activity change, negative = inhibition” value was inactive: -11.5%.
In the case of CCOc1ccc(N=Cc2c(O)c3ccccc3oc2=O)cc1, the “activity change, negative = inhibition” value is reported as inactive: 2.94%.
In the case of C/C(=N\Nc1nc(C(C)(C)C)cs1)c1ccc(O)cc1, the Potency is reported as inconclusive: 9.28 µM [inhibitor, partial curve, poor fit].
For COc1ccc(NC(=O)c2ccc(S(=O)(=O)C(F)F)cc2)c(OC)c1, the “activity change, negative = inhibition” value was inactive: 17.5%.
With CCN(CC)S(=O)(=O)c1cc(C(=O)Nc2cc(C)[nH]n2)ccc1Cl the “activity change, negative = inhibition” value was inactive: 67.7%.
For CCN(CC)CC(O)COC(c1ccccc1)c1ccccc1 (configuration not stated), the Potency was inconclusive: 5.22 µM [inhibitor, partial curve, poor fit].
With CCN(c1ccc(NC(=O)COC(=O)C(C)N=C2NS(=O)(=O)c3ccccc32)cc1)C(C)C (configuration not stated) the “activity change, negative = inhibition” value was inactive: 5.52%.
For COc1ccc(N2C(=O)CC(Sc3n[nH]c(-c4cccc(C)c4)n3)C2=O)cc1 (configuration not stated), the Potency was inconclusive: 14.7 µM [inhibitor, single point].
With COc1ccc(NC(=O)C2CCCN2S(=O)(=O)c2cccs2)c([N+](=O)[O-])c1 (configuration not stated) the “activity change, negative = inhibition” value was inactive: -0.854%.
With Cc1ccccc1-n1c(SCC(=O)N/N=C/C=C/c2ccccc2[N+](=O)[O-])nc2ccccc2c1=O the Potency was inconclusive: 14.7 µM [inhibitor, single point].
For CCCCN1C(=O)C(NC(=O)CC(C)C)(C(F)(F)F)C2=C1CC(C)(C)CC2=O (configuration not stated), the “activity change, negative = inhibition” value was inactive: -4.07%.
With CC(=O)Nc1ccc(C(=O)NNC(=O)C2C3CCCCC32)cc1 (configuration not stated) the Potency was inconclusive: 18.5 µM [inhibitor, single point].
With c1ccc(Nc2nc(-c3ccncc3)cs2)cc1 the “activity change, negative = inhibition” value was inactive: 13.7%.
In the case of O=C(c1cc(COc2ccc(F)cc2Cl)on1)N1CCSCC1, the Potency is reported as inconclusive: 4.15 µM [inhibitor, partial curve, poor fit].
In the case of Cc1nc2ccc(-c3nc4ccccc4o3)cc2[nH]1, the Potency is reported as inconclusive: 0.262 µM [inhibitor, full curve, poor fit].
In the case of O=c1c2ccccc2oc2nc(-c3ccco3)n(Cc3ccccc3)c(=O)c12, the “activity change, negative = inhibition” value is reported as inactive: -2.96%.
With O=C(Nc1ccccn1)C1CCN(S(=O)(=O)c2ccc3c(c2)OCCCO3)CC1 the Potency was inconclusive: 9.28 µM [inhibitor, single point].
In the case of Cn1cccc1Cc1nnc(SCC(=O)N2CCCc3ccccc32)n1-c1ccc(F)cc1, the Potency is reported as active: 8.28 µM.
With COc1ccc(OCc2nnc(SCC(=O)N3CCCC3)o2)cc1 the Potency was inconclusive: 18.5 µM [inhibitor, single point].
With CSc1ccc(-c2nc(CSCC(=O)N3CCOCC3)c(C)o2)cc1 the Potency was inconclusive: 1.85 µM [inhibitor, partial curve, poor fit].
In the case of Cc1ccccc1-c1noc(-c2ccccc2C(=O)NCC2CCCO2)n1 (configuration not stated), the “activity change, negative = inhibition” value is reported as inactive: 38.1%.
In the case of COc1cc(NC(=S)N2CCN(c3ccccn3)CC2)cc(OC)c1, the Potency is reported as inconclusive: 18.5 µM [inhibitor, single point].
